No constants are given. Whether binding was seen depends on the method and setting. In cells and extracts the contact can be indirect. Binding calls can cover weak binding; strength is not graded here.

In this assay the target is NF-κB (human (endogenous in BXPC-3 and Patu-8988t)). The assay can be described thus: co-IP; endogenous proteins in RIPA lysates of BXPC-3 and Patu-8988t cells; primary antibody at 4°C overnight, Protein A+G agarose beads, rabbit or mouse IgG as negative control; western blot. For orientation: A western blot detects proteins with antibodies after separation by electrophoresis.

B1: Polypeptide N-acetylgalactosaminyltransferase-6 (GALNT6) (enzyme, UniProt Q8NCL4 1-622)
chain: MRLLRRRHMPLRLAMVGCAFVLFLFLLHRDVSSREEATEKPWLKSLVSRKDHVLDLMLEAMNNLRDSMPKLQIRAPEAQQTLFSINQSCLPGFYTPAELKPFWERPPQDPNAPGADGKAFQKSKWTPLETQEKEEGYKKHCFNAFASDRISLQRSLGPDTRPPECVDQKFRRCPPLATTSVIIVFHNEAWSTLLRTVYSVLHTTPAILLKEIILVDDASTEEHLKEKLEQYVKQLQVVRVVRQEERKGLITARLLGASVAQAEVLTFLDAHCECFHGWLEPLLARIAEDKTVVVSPDIVTIDLNTFEFAKPVQRGRVHSRGNFDWSLTFGWETLPPHEKQRRKDETYPIKSPTFAGGLFSISKSYFEHIGTYDNQMEIWGGENVEMSFRVWQCGGQLEIIPCSVVGHVFRTKSPHTFPKGTSVIARNQVRLAEVWMDSYKKIFYRRNLQAAKMAQEKSFGDISERLQLREQLHCHNFSWYLHNVYPEMFVPDLTPTFYGAIKNLGTNQCLDVGENNRGGKPLIMYSCHGLGGNQYFEYTTQRDLRHNIAKQLCLHVSKGALGLGSCHFTGKNSQVPKDEEWELAQDQLIRNSGSGTCLTSQDKKPAMAPCNPSDPHQLWLFV
On to B1, for which the binding entry is reported as “binds”.

For the origin of these results see article PMC10013470.
